Experimental data reported in paper PMC8782181.
No constants are given. Whether binding was seen depends on the method and setting. Binding seen in cells or lysates may run through a third protein. Some binding calls cover weakened binding; strength is not graded here. Tags and fused reporters may be left off the sequences shown.

Amino acid sequences for entries named in this document (tags omitted).
UniProt P04147: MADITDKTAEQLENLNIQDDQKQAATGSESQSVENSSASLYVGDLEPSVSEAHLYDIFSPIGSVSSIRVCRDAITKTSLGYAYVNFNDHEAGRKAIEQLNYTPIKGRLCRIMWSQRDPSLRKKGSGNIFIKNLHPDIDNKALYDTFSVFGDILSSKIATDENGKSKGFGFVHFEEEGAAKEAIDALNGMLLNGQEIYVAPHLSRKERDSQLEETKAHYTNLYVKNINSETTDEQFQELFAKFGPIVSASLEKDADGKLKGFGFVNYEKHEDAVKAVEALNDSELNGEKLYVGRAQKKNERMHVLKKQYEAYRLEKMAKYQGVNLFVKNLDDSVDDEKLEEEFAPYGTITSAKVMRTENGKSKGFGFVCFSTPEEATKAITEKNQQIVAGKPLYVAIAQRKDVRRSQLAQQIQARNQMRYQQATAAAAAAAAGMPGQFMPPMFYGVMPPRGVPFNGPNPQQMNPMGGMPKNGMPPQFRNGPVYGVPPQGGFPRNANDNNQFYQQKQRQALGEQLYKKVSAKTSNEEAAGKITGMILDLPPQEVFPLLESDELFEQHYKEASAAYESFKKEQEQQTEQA

Target: T1, Pbp1-myc (S. cerevisiae) (UniProt P53297)
T1 sequence: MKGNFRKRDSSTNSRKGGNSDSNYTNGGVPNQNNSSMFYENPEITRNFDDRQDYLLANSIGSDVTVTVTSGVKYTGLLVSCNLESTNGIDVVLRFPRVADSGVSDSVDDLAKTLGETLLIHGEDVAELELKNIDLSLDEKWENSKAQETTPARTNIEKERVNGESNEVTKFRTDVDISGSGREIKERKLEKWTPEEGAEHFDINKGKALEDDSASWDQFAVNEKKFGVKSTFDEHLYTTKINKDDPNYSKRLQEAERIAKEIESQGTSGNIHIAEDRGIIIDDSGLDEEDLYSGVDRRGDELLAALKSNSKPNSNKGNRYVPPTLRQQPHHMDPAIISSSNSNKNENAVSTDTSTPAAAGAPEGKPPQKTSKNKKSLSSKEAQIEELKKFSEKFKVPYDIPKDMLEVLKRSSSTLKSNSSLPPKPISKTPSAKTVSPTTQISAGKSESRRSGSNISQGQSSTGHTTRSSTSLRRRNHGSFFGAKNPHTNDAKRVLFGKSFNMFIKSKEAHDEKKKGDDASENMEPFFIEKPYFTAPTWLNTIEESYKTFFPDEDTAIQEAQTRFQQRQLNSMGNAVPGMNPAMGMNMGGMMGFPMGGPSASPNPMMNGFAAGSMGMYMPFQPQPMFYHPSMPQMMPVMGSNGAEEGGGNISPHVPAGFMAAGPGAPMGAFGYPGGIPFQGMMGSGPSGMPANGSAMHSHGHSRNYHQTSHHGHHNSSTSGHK
Assay: co-IP; immunoprecipitation of the myc-tagged bait from the 20,000 g pellet of cross-linked cells, glucose replete and glucose depleted, untagged control strain; Western blot of the fractions

Row | Molecule | binding
1 | Pab1 (from UniProt P04147 1-577) | binds
2 | Scp160 (protein, UniProt P06105 1-1222) MSEEQTAIDSPPSTVEGSVETVTTIDSPSTTASTIAATAEEHPQLEKKPTPLPSLKDLPSLGSNAAFANVKVSWGPNMKPAVSNSPSPSPSAPSLTTGLGAKRMRSKNIQEAFTLDLQSQLSITKPELSRIVQSVKKNHDVSVESTLSKNARTFLVSGVAANVHEAKRELVKKLTKPINAVIEVPSKCKASIIGSGGRTIREISDAYEVKINVSKEVNENSYDEDMDDTTSNVSLFGDFESVNLAKAKILAIVKEETKNATIKLVVEDEKYLPYIDVSEFASDEGDEEVKVQFYKKSGDIVILGPREKAKATKTSIQDYLKKLASNLDEEKVKIPSKFQFLIDAEELKEKYNVIVTFPSTPDDELVSFVGLRDKVGEAITYARSSSKSYVVESLDISKAHSKNLTHAKNLIMYFTKYSVLKGLEESHPNVKISLPSIQSLPTAETVTIHISAKSDEANDIKAVRKELISFVNNIPPSETLVITDLDYELFGGSIKHCLLASESSVAFVQFGDYYPNDNSILLVALTEDEDFKPSIEEIQASLNKANESLNSLRTKQNNMETKTYEFSEEVQDSLFKPSSATWKLIMEDISEQEGHLQIKLHTPEENQLTVRGDEKAAKAANKIFESILNSPSSKSKMTVNIPANSVARLIGNKGSNLQQIREKFACQIDIPNEENNNASKDKTVEVTLTGLEYNLTHAKKYLAAEAKKWADIITKELIVPVKFHGSLIGPHGTYRNRLQEKYNVFINFPRDNEIVTIRGPSRGVNKAHEELKALLDFEMENGHKMVINVPAEHVPRIIGKNGDNINDIRAEYGVEMDFLQKSTDPKAQETGEVELEITGSRQNIKDAAKRVESIVAEASDFVTEVLKIDHKYHKSIVGSGGHILREIISKAGGEEIRNKSVDIPNADSENKDITVQGPQKFVKKVVEEINKIVKDAENSVTKTIDIPAERKGALIGPGGIVRRQLESEFNINLFVPNKDDPSGKITITGAPENVEKAEKKILNEIIRENFDREVDVPASIYEYVSERGAFIQKLRMDLSVNVRFGNTSKKANKLARAPIEIPLEKVCGSTEGENAEKTKFTIEEVGAPTSSEEGDITMRLTYEPIDLSSILSDGEEKEVTKDTSNDSAKKEEALDTAVKLIKERIAKAPSATYAGYVWGADTRRFNMIVGPGGSNIKKIREAADVIINVPRKSDKVNDVVYIRGTKAGVEKAGEMVLKSLRR | binds
3 | eIF4E (protein, UniProt P07260 1-213) MSVEEVSKKFEENVSVDDTTATPKTVLSDSAHFDVKHPLNTKWTLWYTKPAVDKSESWSDLLRPVTSFQTVEEFWAIIQNIPEPHELPLKSDYHVFRNDVRPEWEDEANAKGGKWSFQLRGKGADIDELWLRTLLAVIGETIDEDDSQINGVVLSIRKGGNKFALWTKSEDKEPLLRIGGKFKQVLKLTDDGHLEFFPHSSANGRHPQPSITL | binds
